Reference: PMC6423055, “Cathelicidins PMAP-36, LL-37 and CATH-2 are similar peptides with different modes of action” (Scientific Reports, 2019)
Positions of bridges follow the written chain, without caps; N, C: chain ends. Chains are numbered I, II in the order given. No end group written: not given here.

Assay: Isothermal titration calorimetry, peptide binding to LPS
Parameters: species or system Escherichia coli
Conditions: ITC; for First binding event n (number of peptide molecules binding to one LPS molecule) / First binding event ΔH (enthalpy changes) / First binding event −TΔS (entropy changes) / Second binding event n (number of peptide molecules binding to one LPS molecule) / Second binding event ΔH (enthalpy changes) / Second binding event −TΔS (entropy changes): 37 °C, two independent models, N = 2 averaged
Description: Isothermal titration calorimetry (ITC) was performed with the Low Volume NanoITC (TA Instruments-Waters LLC, New Castle, DE, USA) to determine interaction between LPS and the different peptides. 100 μM UltraPure LPS E. coli O111:B4 was diluted in MilliQ, after which 4x dilution in dPBS (Gibco) was made. Peptides were diluted to 800 μM in MilliQ, followed by 4-fold dilution in dPBS. The chamber was filled with 164 μl LPS, the peptide was titrated into the chamber with 1.96 μl every 300 seconds. Experiments were performed at 37 °C and analyzed using the Nano Analyze software (TA instruments-Waters LLC). All experiments were performed 2 times and corrected for buffer in buffer titration, after which the both experiments were averaged. Two independent models were used, except for LL-37 with one independent model fit, to determine the peptide-LPS interaction.

For “Ac-KRLKKIGKVLKWIPPIVGSIPLGS [mP12, monomeric analog of P12]”, the “First binding event n (number of peptide molecules binding to one LPS molecule)” value (“First binding event n” below) was 0.347, the “First binding event ΔH (enthalpy changes)” value was -23.901 kcal/mol and the “First binding event −TΔS (entropy changes)” value was 66.66 J/mol·K. The “Second binding event n (number of peptide molecules binding to one LPS molecule)” value (from here on “Second binding event n”) was 1.214, the “Second binding event ΔH (enthalpy changes)” value was 20.21 kcal/mol and the “Second binding event −TΔS (entropy changes)” value was −116.50 J/mol·K.
With “Ac-RKKTRKRLKKIGKVLKWIPPIVGSIPLGS [mP7, monomeric analog of P7]” the “First binding event n” value was 0.392, the “First binding event ΔH (enthalpy changes)” value was -6.269 kcal/mol and the “First binding event −TΔS (entropy changes)” value was −13.09 J/mol·K. For the same substance, the “Second binding event n” value was 1.499, the “Second binding event ΔH (enthalpy changes)” value was 6.542 kcal/mol and the “Second binding event −TΔS (entropy changes)” value was −66.12 J/mol·K.
For “I: Ac-RKKTRKRLKKIGKVLKWIPPIVGSIPLGCG / II: Ac-RKKTRKRLKKIGKVLKWIPPIVGSIPLGCG (disulfide I:29-II:29) [Peptide P7]”, the “First binding event n” value was 0.305, the “First binding event ΔH (enthalpy changes)” value was -23.35 kcal/mol and the “First binding event −TΔS (entropy changes)” value was 68.53 J/mol·K. For the same substance, the “Second binding event n” value was 2.168, the “Second binding event ΔH (enthalpy changes)” value was 8.439 kcal/mol and the “Second binding event −TΔS (entropy changes)” value was −69.72 J/mol·K.
With “Ac-KIGKVLKWIPPIVGSIPLGS [mP16, monomeric analog of P16]” the “First binding event n” value was 0.371, the “First binding event ΔH (enthalpy changes)” value was -21.77 kcal/mol and the “First binding event −TΔS (entropy changes)” value was 57.13 J/mol·K. For the same substance, the “Second binding event n” value was 0.751, the “Second binding event ΔH (enthalpy changes)” value was 23.89 kcal/mol and the “Second binding event −TΔS (entropy changes)” value was −130.80 J/mol·K.
With “Ac-GRFRRLRKKTRKRLKKIGKVLKWIPPIVGSIPLGS [mP1, monomeric analog of PMAP-36, Cys35 replaced by serine, last amino acid deleted]” the “First binding event n” value was 0.509, the “First binding event ΔH (enthalpy changes)” value was -6.467 kcal/mol and the “First binding event −TΔS (entropy changes)” value was −10.03 J/mol·K. The “Second binding event n” value was 1.650, the “Second binding event ΔH (enthalpy changes)” value was 6.647 kcal/mol and the “Second binding event −TΔS (entropy changes)” value was −62.42 J/mol·K.
With “I: Ac-GRFRRLRKKTRKRLKKIGKVLKWIPPIVGSIPLGCG / II: Ac-GRFRRLRKKTRKRLKKIGKVLKWIPPIVGSIPLGCG (disulfide I:35-II:35) [PMAP-36]” the “First binding event n” value was 0.337, the “First binding event ΔH (enthalpy changes)” value was -23.901 kcal/mol and the “First binding event −TΔS (entropy changes)” value was 70.36 J/mol·K. The “Second binding event n” value was 2.706, the “Second binding event ΔH (enthalpy changes)” value was 4.173 kcal/mol and the “Second binding event −TΔS (entropy changes)” value was −55.23 J/mol·K. The “LPS molecules bound by one dimer molecule” value (recalculated from monomer basis to dimer) was 1.35.
For “Ac-KRLKKIGKVLKWIPPIVGSIPLGCG (disulfide (positions not given here)) [Peptide P12, PMAP-36 analog with N-terminal truncation of 11 amino acids]”, the “First binding event n” value was 0.300, the “First binding event ΔH (enthalpy changes)” value was -9.226 kcal/mol and the “First binding event −TΔS (entropy changes)” value was 3.95 J/mol·K. For the same substance, the “Second binding event n” value was 2.763, the “Second binding event ΔH (enthalpy changes)” value was 7.823 kcal/mol and the “Second binding event −TΔS (entropy changes)” value was −65.81 J/mol·K.
In the case of “I: Ac-KIGKVLKWIPPIVGSIPLGCG / II: Ac-KIGKVLKWIPPIVGSIPLGCG (disulfide I:20-II:20) [Peptide P16]”, the “First binding event n” value is reported as 1.069, the “First binding event ΔH (enthalpy changes)” value is reported as -16.14 kcal/mol and the “First binding event −TΔS (entropy changes)” value is reported as 34.17 J/mol·K. The “Second binding event n” value was 1.979, the “Second binding event ΔH (enthalpy changes)” value was 14.91 kcal/mol and the “Second binding event −TΔS (entropy changes)” value was −94.4 J/mol·K.
